Experimental data reported in EP1103270B1, “TREATMENT OF AUTOIMMUNE DISEASES IN MAMMALS” (UNIVERSIDAD COMPLUTENSE DE MADRID, priority 1999, dated 2000).
Not every detail of the peptide structures is certain; ends, links or a residue may be inferred.

How the values were obtained:
mRNA of IL-6 = assay: Northern Blot for mRNA of IL-6 in macrophages activated with LPS; type: cell-based, rat; details: macrophages activated with LPS and exposed to the peptide; Figure 5
Method: (§1) • Figure 1 represents the production of TNFα by murine macrophages in culture (5x10^5 cells/ml) stimulated with 10ngr/ml of LPS in the presence or absence of 10^-8M of VIP or ACHPA during the course of 24 hours. • Figure 2 represents the production of TNFα by murine macrophages in culture (5x10^5 cells/ml) after 6 hours of culture with 10ngr/ml of LPS and to which 10^-8M of VIP or ACHPA are added at different times. • Figure 3 represents the production of IL-6 by murine macrophages in culture (5x10^5 cells/ml) stimulated with 10ngr/ml of LPS in the presence or absence of 10^-8M of VIP or ACHPA during the course of 24 hours. • Figure 4 represents the production of IL-6 by murine macrophages in culture (5x10^5 cells/ml) after 6 hours of culture with 10ngr/ml of LPS and to which 10^-8M of VIP or ACHPA are added at different times. • Figure 5 presents the Northern Blot analysis for the presence of mRNA of TNFα and IL-6 in macrophages stimulated with LPS in the presence or absence of VIP or ACHPA (18S represents the corresponding rRNA as total quality control of loaded RNA). • Figure 6 represents the survival in mice injected with 400µgr of LPS and, simultaneously, or after 30 minutes, 1 or 4 hours, with 5 nmol of VIP or ACHPA.
(§2) Macrophages from rat were submitted to the experimental conditions described in examples 1 and 3 and their mRNA was isolated. […]

anti-KLH antibodies = assay: Isotype of serum anti-KLH antibodies (ELISA) in KLH-immunised mice; type: in vivo; details: 5 nmol/mouse with second KLH injection, serum two weeks after the last immunisation
mRNA of TNFα = assay: Northern Blot for mRNA of TNFα in macrophages activated with LPS; type: cell-based, rat; details: macrophages activated with LPS and exposed to the peptide; Figure 5
Method: as §1, §2

TNFα [1] = assay: Production of TNFα in peritoneal murine macrophages stimulated with LPS, in vitro; type: cell-based
Method: as §1
In experiments carried out "in vitro" VIP and ACHPA inhibit the production of TNFα in peritoneal murine macrophages stimulated with LPS. […]

IL-6 [2] = assay: Production of IL-6 in peritoneal murine macrophages stimulated with LPS, in vitro; type: cell-based
Method: In experiments carried out " in vitro" VIP and ACHPA inhibit the production of IL-6 in peritoneal murine macrophages stimulated with LPS. Most of the inhibition reaches values near to 90% and occurs with doses of stimulation of 10 µgr./ml of LPS. […] The inhibitory effect is also observed if the neuropeptides are added after stimulation with LPS, although the degree of inhibition is progressively smaller (see Figure 4).

[3] = Survival of mice injected with a lethal dose of LPS (endotoxic shock); type: in vivo; details: mice injected with 400µgr of LPS
Method: as §1
An experiment was carried out in which the long-term survival over a period of 4 days was studied for mice injected with 400µgr of LPS. […]

TNFα [4] = assay: Circulating levels of TNFα in mice after injection of LPS; type: in vivo; details: 2 hours after injection of 25 µgr of LPS, simultaneous administration of 5 nmol
Method: In an experiment carried out with mice the circulating levels of TNFα 2 hours after injection of 25 µgr of LPS were approximately 4 ngr./ml. Simultaneous administration of 5 nmol of VIP or ACHPA reduced said levels by 60%.

IL-6 [5] = assay: Circulating levels of IL-6 in mice after injection of LPS; type: in vivo; details: two hours after injection of 25 µgr. of LPS, simultaneous administration of 5nmol
Text: In an experiment carried out in mice the circulating levels of IL-6 two hours after injection of 25 µgr. of LPS were approximately 1.5 ngr./ml. The simultaneous administration of 5nmol of VIP or ACHPA reduced said levels by 60% and 75%, respectively.

IL-4 producing cells = assay: Number of IL-4 producing cells (ELISPOT) in spleen and peritoneum of KLH-immunised mice; type: in vivo; details: 5 nmol/mouse with second KLH injection, spleen and peritoneum cells two weeks later

In the case of CC[C@H](C)[C@H](NC(=O)[C@H](CO)NC(=O)[C@H](CC(N)=O)NC(=O)[C@H](CC(C)C)NC(=O)[C@H](Cc1ccc(O)cc1)NC(=O)[C@H](CCCCN)NC(=O)[C@H](CCCCN)NC(=O)[C@@H](NC(=O)[C@H](C)NC(=O)[C@H](CCSC)NC(=O)[C@H](CCC(N)=O)NC(=O)[C@H](CCCCN)NC(=O)[C@H](CCCNC(=N)N)NC(=O)[C@H](CC(C)C)NC(=O)[C@H](CCCNC(=N)N)NC(=O)[C@@H](NC(=O)[C@H](Cc1ccc(O)cc1)NC(=O)[C@H](CC(N)=O)NC(=O)[C@H](CC(=O)O)NC(=O)[C@@H](NC(=O)[C@H](Cc1ccccc1)NC(=O)[C@@H](NC(=O)[C@H](C)NC(=O)[C@H](CC(=O)O)NC(=O)[C@H](CO)NC(=O)[C@@H](N)Cc1c[nH]cn1)C(C)C)[C@@H](C)O)[C@@H](C)O)C(C)C)C(=O)N[C@@H](CC(C)C)C(=O)N[C@@H](CC(N)=O)C(N)=O [VIP, vasoactive intestinal peptide], the “transcripts for IL-6 (Northern Blot)” value (mRNA of IL-6) is reported as “absence of transcripts”, the “isotype of anti-KLH antibodies detectable in serum” value (anti-KLH antibodies) is reported as “only of the IgGl isotype” and the “transcripts for TNFα (Northern Blot)” value (mRNA of TNFα) is reported as “absence of transcripts”. For the same compound, the IC50 (TNFα [1]; peritoneal murine macrophages stimulated with LPS, read-out: IC50 (inhibition of the production of TNFα)) was 80 pM, the “greatest degree of inhibition of the production of TNFα” value (TNFα [1]; peritoneal murine macrophages, stimulation with 1-10 ngr./ml of LPS) was ~60% and the IC50 (IL-6 [2]; peritoneal murine macrophages stimulated with LPS, read-out: IC50 (inhibition of the production of IL-6)) was 8.6 pM. The “inhibition of the production of IL-6 (most of the inhibition)” value (IL-6 [2]; peritoneal murine macrophages, stimulation with 10 µgr./ml of LPS) was ~90%, the survival rates ([3]; administration up to 1 hour after injection with LPS) was ~50% and the “survival at the end of the experiment” value ([3]; simultaneous administration of 5 nmol, period of 4 days) was 60%. The “reduction of circulating levels of TNFα” value (TNFα [4]) was 60%, the “reduction of circulating levels of IL-6” value (IL-6 [5]) was 60% and the “increase in the number of IL-4 producing cells compared to untreated mice” value (IL-4 producing cells) was ~20 times.
